Measurements: PubChem BioAssay AID1347076 (National Center for Advancing Translational Sciences (NCATS), 2019)
The campaign covered roughly 400,000 compounds. About 13,000 (3.2%) were called active. The shares of active, inactive and inconclusive entries below differ from those in the screen. Calls follow the shape of the dose curve; as a rule, active = well fitted cell-killing curve with a large enough effect; inconclusive = small, poorly fitted or top-dose-only effect, or effect the other way; inactive = flat fitted curve, though single readings scatter. A potency beside an inconclusive call is a rough fit, not a confirmed value.

experiment: qHTS assay for MDR1-selective chemotherapeutics: Primary screen using the drug-selected MDR subline cells KB-V1; settings: KB-V1 MDR cells viability, CellTiter-Glo, 72 h; activity change, negative = cytotoxicity: at 46.1 µM (top of the series); also: nearly all actives have a fitted effect of over 60% in size
How it was run: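 qHTS viability screen in drug-selected KB-V1 MDR cells: 72 h compound treatment at 37 degrees C, ATP luminescence end point.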
% is scaled to controls: 0 for no effect and ±100 for the full control effect; potency is read from the fitted curve at half-maximal effect.

Row | Structure (SMILES) | Potency | activity change, negative = cytotoxicity
1 | COc1cc(N2C(=O)c3ccccc3C2=O)c(Cl)cc1C(=O)OCC(=O)NCc1ccco1 | inconclusive: 18.4 µM [rising, single point] | 
2 | COc1cc(NC(=O)CCS(=O)(=O)c2nc(-c3ccc4c(c3)OCO4)cc(C(F)(F)F)n2)cc(OC)c1OC |  | inactive: -18.6%
3 | Cc1ccc[n+](/C(C(=S)NCc2ccco2)=C(/[O-])c2ccccc2Cl)c1 |  | inactive: 13.8%
4 | O=C(Nc1c(Cl)cc([N+](=O)[O-])cc1Cl)c1cc(Cl)ccc1O | inconclusive: 14.6 µM [cytotoxic, partial curve, poor fit] | 
5 | CCc1nc(SCC(=O)N2CCCCCC2)c2c(=O)n(C)c(=O)n(C)c2n1 | inconclusive: 29.1 µM [cytotoxic, single point] | 
6 | COc1ccc(CCNC(=O)c2oc(=O)c3ccccc3c2-c2ccccc2)cc1OC |  | inactive: 2.01%
7 | O=C(CSc1nnc(NC(=O)c2c(F)cccc2Cl)s1)Nc1ccccc1F |  | inactive: -1.5%
8 | O=C(O)/C=C\c1cccc(-n2nnnc2SCc2ccccc2F)c1 | inconclusive: 20.6 µM [rising, single point] | 
9 | O=C(CSC1=NCCS1)Nc1ccnc2ccccc12 | inconclusive: 20.6 µM [cytotoxic, single point] | 
10 | N#CCc1ccc(NC(=O)Nc2cccc(Cl)c2)cc1 | active: 14.6 µM | 
11 | COc1ccc(CCNC(=O)C2CCCN(Cc3nc(-c4ccccc4C)oc3C)C2)cc1OC (centres undefined) | active: 16.4 µM | 
12 | O=P(OCC1CCCO1)(OCC1CCCO1)OCC1CCCO1 (centres undefined) |  | inactive: -22.6%
13 | CCOc1cccc(C(=O)Nc2cccc(-c3nnc(-c4ccc(C)cc4)o3)c2)c1 | inconclusive: 23.1 µM [cytotoxic, partial curve, poor fit] | 
14 | Cc1cccc(C)c1OCC(=O)Nc1ccccc1C(=O)N1CCOCC1 | inconclusive: 2.59 µM [cytotoxic, partial curve, poor fit] | 
15 | CCc1ccc2c(c1)cc(CN(C(=S)Nc1cccc(C)c1)C1CC1)c1nnnn12 |  | inactive: -15.3%
16 | Cc1ccc(CCNC(=O)C2CCCN(S(=O)(=O)N3CC(C)CC(C)C3)C2)cc1 (centres undefined) |  | inactive: 0%
17 | CCSc1nnc(NC(=O)CSc2nccn2-c2cccc(C)c2C)s1 | active: 20.6 µM | 
18 | CCOc1ccc(C(=O)Nc2nc(C)cc(C)n2)cc1[N+](=O)[O-] | inconclusive: 18.4 µM [cytotoxic, partial curve, poor fit] | 
19 | Cc1ccc(S(=O)(=O)N2[C@@H](Cc3ccccc3)CO[C@H]2CC(=O)OCc2ccccc2)cc1 | inconclusive: 16.4 µM [cytotoxic, partial curve] | 
20 | O=C(NCc1ccccc1)C(c1ccncc1)n1c(=O)c(-c2cc3ccccc3[nH]2)nc2ccccc21 (centres undefined) | inconclusive: 18.4 µM [cytotoxic, single point] | 
21 | Cc1ccc(C(C[N+](=O)[O-])c2c(-c3ccccc3O)[nH][nH]c2=O)cc1 (centres undefined) | inconclusive: 29.1 µM [cytotoxic, single point] | 
22 | Cc1noc(C)c1S(=O)(=O)NC(=O)C1(C)CCN1C(=O)Cc1ccc(Cl)cc1Cl (centres undefined) |  | inactive: -2.98%

Row | Structure (SMILES) | Potency | activity change, negative = cytotoxicity
23 | CC(Nc1ccc2c(c1)OCCO2)C(=O)N1c2ccccc2CC1C (centres undefined) | inconclusive: 10.3 µM [cytotoxic, partial curve] | 
24 | Cc1cc(NC(=O)CSc2nc3c(cc2C#N)CCC3)no1 |  | inactive: -13.6%
25 | COc1cccc(N2CCN(CC(=O)Nc3ccccc3C(=O)NCc3ccccc3)CC2)c1 | inconclusive: 20.6 µM [cytotoxic, single point] | 
26 | CCOC(=O)C(c1nc2ccccc2[nH]1)n1c(-c2ccccn2)nc2ccccc21 (centres undefined) | inconclusive: 11.6 µM [cytotoxic, partial curve, poor fit] | 
27 | COCCNC(=O)C(C)OC(=O)C1=Cc2ccccc2OC1 (centres undefined) |  | inactive: -0.108%
28 | CC(C)Oc1ncnc2c1[nH]c1ccccc12 | inconclusive: 6.51 µM [cytotoxic, partial curve] | 
29 | CCOC(=O)c1cnc(SCC(=O)c2ccc(C)cc2)nc1N | inconclusive: 16.4 µM [cytotoxic, partial curve, poor fit] | 
30 | CCCCNC(=O)C1CCC(CNS(=O)(=O)c2ccc(C)cc2)CC1 (centres undefined) |  | inactive: 15.6%
31 | CC(C)CN1CCN(Cc2ccc3ncccc3c2)CC1CCO (centres undefined) | inconclusive: 16.4 µM [cytotoxic, partial curve, poor fit] | 
32 | CC(=O)c1ccc(OCCCC(=O)N2CCN(S(=O)(=O)c3ccc(C(C)C)cc3)CC2)cc1 | inconclusive: 29.1 µM [cytotoxic, single point] | 
33 | Cc1c(C(=O)OC(C)C)sc2nc[nH]c(=O)c12 | inconclusive: 29.1 µM [cytotoxic, single point] | 
34 | CC(=O)Nc1ccc(N=NN2CCOCC2)cc1 | inconclusive: 3.66 µM [rising, full curve] | 
35 | COc1ccc(NC(=O)C(OC)c2ccccc2)cc1Cl (centres undefined) | inconclusive: 20.6 µM [cytotoxic, partial curve, poor fit] | 
36 | COc1ccc2[nH]c3c(=O)n(CCCC(=O)NC4CCC(C)CC4)c(=S)[nH]c3c2c1 (centres undefined) | inconclusive: 25.9 µM [rising, single point] | 
37 | CCCNC(=O)C(=O)Nc1ccc2c(c1)N(S(=O)(=O)c1cccs1)CCC2 | inconclusive: 20.6 µM [cytotoxic, single point] | 
38 | C[C@@H]1CN([C@@H](C)CO)C(=O)CCCn2nncc2CO[C@@H]1CN(C)C(=O)c1ccncc1 |  | inactive: -12.3%
39 | CCOC(=O)c1c(C)nc2c(c1-c1ccc(Cl)cc1)C(=O)CC(C)(C)C2 | inconclusive: 7.31 µM [cytotoxic, partial curve] | 
40 | CCOc1ccc(CCn2c(-c3ccco3)nc3ccccc3c2=O)cc1OCC | active: 7.31 µM | 
41 | Cc1sc2ncnc(SCC(=O)Nc3nc(-c4ccc(F)c(F)c4)cs3)c2c1C |  | inactive: -17.4%
42 | CN(Cc1ccccc1)Cc1nc2c(c(=O)n(C)c(=O)n2C)n1Cc1ccc(Cl)cc1 | inconclusive: 16.4 µM [cytotoxic, single point] | 
43 | Cc1cccc(NC(=S)/N=C(\N)Nc2nc(C)c3cc(C)ccc3n2)c1 | active: 23.1 µM | 
44 | CCOC(=O)c1cc(C(C)(C)C)n(CCCN2CCOCC2)c1C | inconclusive: 2.59 µM [cytotoxic, partial curve, poor fit] | 

Of the compounds above, these contain an NH in an aromatic ring:
Row | Structure (SMILES) | Potency | activity change, negative = cytotoxicity
20 | O=C(NCc1ccccc1)C(c1ccncc1)n1c(=O)c(-c2cc3ccccc3[nH]2)nc2ccccc21 (centres undefined) | inconclusive: 18.4 µM [cytotoxic, single point] | 
21 | Cc1ccc(C(C[N+](=O)[O-])c2c(-c3ccccc3O)[nH][nH]c2=O)cc1 (centres undefined) | inconclusive: 29.1 µM [cytotoxic, single point] | 
26 | CCOC(=O)C(c1nc2ccccc2[nH]1)n1c(-c2ccccn2)nc2ccccc21 (centres undefined) | inconclusive: 11.6 µM [cytotoxic, partial curve, poor fit] | 
28 | CC(C)Oc1ncnc2c1[nH]c1ccccc12 | inconclusive: 6.51 µM [cytotoxic, partial curve] | 
33 | Cc1c(C(=O)OC(C)C)sc2nc[nH]c(=O)c12 | inconclusive: 29.1 µM [cytotoxic, single point] | 
36 | COc1ccc2[nH]c3c(=O)n(CCCC(=O)NC4CCC(C)CC4)c(=S)[nH]c3c2c1 (centres undefined) | inconclusive: 25.9 µM [rising, single point] | 
